Experimental data reported in patent US20030216321A1.
Results are given in words; binding and its absence hold for the method and conditions named. Some results given as binding are weak or reduced against the parent protein; the word gives no strength.

Protein sequences, listed by entry. Tags and fused reporters are not part of them. Residues count along the entry.
UniProt P04004, residues 20-478: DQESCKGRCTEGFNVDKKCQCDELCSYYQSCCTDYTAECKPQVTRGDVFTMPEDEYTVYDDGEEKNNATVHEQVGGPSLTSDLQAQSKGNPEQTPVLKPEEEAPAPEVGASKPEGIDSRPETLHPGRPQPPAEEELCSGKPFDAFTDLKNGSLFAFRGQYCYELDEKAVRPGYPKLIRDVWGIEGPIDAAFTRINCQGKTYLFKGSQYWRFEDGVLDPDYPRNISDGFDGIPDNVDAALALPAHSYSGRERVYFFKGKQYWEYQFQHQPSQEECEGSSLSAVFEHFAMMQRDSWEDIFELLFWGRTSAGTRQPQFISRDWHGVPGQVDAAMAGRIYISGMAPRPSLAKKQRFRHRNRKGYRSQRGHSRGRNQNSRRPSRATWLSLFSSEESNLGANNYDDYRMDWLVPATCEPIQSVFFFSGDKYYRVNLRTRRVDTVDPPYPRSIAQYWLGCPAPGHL

Tests used:
[1] = target: native human vitronectin (human) (UniProt P04004); assay: ELISA on immobilized nVn, anti-PAI-1 detection (FIG. 38)
[2] = target: urea denatured human vitronectin (conformationally altered) (human) (UniProt P04004); assay: ELISA on immobilized uVn, anti-PAI-1 detection; not with high affinity
[3] = target: urea denatured human vitronectin (conformationally altered) (human) (UniProt P04004); assay: solid phase assay on dVn-coated plates, anti-PAI-1 detection; not with high affinity

binding [1]: binds
binding [2]: binds
binding [3]: binds
Substance: PAI-1 cleaved by elastase at the P4 position of the reactive center loop (from UniProt P05121 24-366)
